# According to the RNAGym collection of RNA variant scans (doi:10.1126/science.aae0568):
# Variants at the floor of the assay are shown more often than the library holds them.
# B1: tRNA (parent)
# chain: GUUCCGUUGGCGUAAUGGUAACGCGUCUCCCUCCUAAGGAGAAGACUGCGGGUUCGAGUCCCGUACGGAACG
# Variants of: B1
# Assay: yeast fitness relative to wild type (ratio to wild type); higher = fitter; tRNA-Arg(CCU), competitive growth, 37 C, YPD
# Summary of the method: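 Genotype frequency changes were the basis for Darwinian fitness relative to wild type. The frequencies came from 100-nucleotide paired-end sequencing of gene amplicons from the start population and each end population of pooled yeast strains with tRNA-Arg(CCU) gene variants at the native locus. Competition ran in YPD at 37°C for 24 hours in six replicates, genotypes needed ≥ 100 starting reads, and estimates < 0.5 were set to 0.5.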
row,Variant,yeast fitness
1,A21U C62U C66G,≤ 0.5
2,A21U G23A A42C G51C,≤ 0.5
3,A21U G25A G56C,≤ 0.5
4,A21U G67U,0.742
5,A21U U32C A45U G67C,≤ 0.5
6,C22A C30U C61G,≤ 0.5
7,C22A C30U G52A,≤ 0.5
8,C22A G23A A37G,≤ 0.5
9,C22A G23A A37G A57G A69U,≤ 0.5
10,C22A G23A C33U C34G,≤ 0.5
11,C22A G48A,0.826
12,C22A U53C U64A,≤ 0.5
13,C22G C27A C49U C55U,≤ 0.5
14,C22G C27G C29G C49U,≤ 0.5
15,C22G C29A U53A C66U,≤ 0.5
16,C22G C31A A45U A69C,≤ 0.5
17,C22G C31U C49U C61A,≤ 0.5
18,C22G C34G U35A A36U G48C C55G A69U,≤ 0.5
19,C22G C49G U64G A65G A70U,≤ 0.5
20,C22G C55A C62U,≤ 0.5
21,C22G G23A G38A G56C,≤ 0.5
22,C22G G25A C33G C49U G56C,≤ 0.5
23,C22G G44A G67C,≤ 0.5
24,C22G U28A C31G G39A C55A G68C,≤ 0.5

row,Variant,yeast fitness
1,C22U A37G A45U G52A C62G A70U,≤ 0.5
2,C22U A37U U47C,≤ 0.5
3,C22U A40U C61G,≤ 0.5
4,C22U A42G C49U U64A,≤ 0.5
5,C22U A43U U59C C66U,≤ 0.5
6,C22U C24A C30A A65U A69C,≤ 0.5
7,C22U C24A U26C G39C,≤ 0.5
8,C22U C27U C29U,≤ 0.5
9,C22U C29A U32A C55G A65U G67A,≤ 0.5
10,C22U C30G C34A A37C A65U,≤ 0.5
11,C22U C31G A43U C60A,≤ 0.5
12,C22U C31G G38A U47A,≤ 0.5
13,C22U C33G,0.551
14,C22U C34G A42U G48A,≤ 0.5
15,C22U C46G G56C,≤ 0.5
16,C22U C55A C61G,≤ 0.5
17,C22U C55G,0.578
18,C22U C55U,0.686
19,C22U G23A A65U,≤ 0.5
20,C22U G44C U64G,≤ 0.5
21,G23A A36C,0.586
22,G23A A36G C61U A65U,≤ 0.5
23,G23A A43U G63C C66U,≤ 0.5
24,G23A A45U C60U A70G,≤ 0.5

row,Variant,yeast fitness
1,G23C A40U A42C C49A C66A,≤ 0.5
2,G23C A42C A43C G48A C62A,≤ 0.5
3,G23C A57G A70G,≤ 0.5
4,G23C C30U C33A G39A,≤ 0.5
5,G23C C33U G39A C60A,≤ 0.5
6,G23C C34U,≤ 0.5
7,G23C C46A G56A C62U A69U,≤ 0.5
8,G23C C55G G58C,≤ 0.5
9,G23C C61G C62U,≤ 0.5
10,G23C G39C A42U G52U U53A,≤ 0.5
11,G23C U26C C34U,≤ 0.5
12,G23C U26C C46G C55U,≤ 0.5
13,G23U C29U C31G C33A,≤ 0.5
14,C24A A36G C55G,≤ 0.5
15,C24A A37U A40U U54A,≤ 0.5
16,C24A A40G C61U G68A,≤ 0.5
17,C24A C49U A65U,≤ 0.5
18,C24A C61G,≤ 0.5
19,C24A G48C C61G,≤ 0.5
20,C24A G52C G63A,≤ 0.5
21,C24A U26C U54A C60U A69C,0.819
22,C24A U26G U35G G51C G58A,≤ 0.5
23,C24A U32C C33U,≤ 0.5
24,C24G A36G G56A G67A,≤ 0.5

row,Variant,yeast fitness
1,C24G A36G U53A,0.555
2,C24G A42C C66A,≤ 0.5
3,C24G A42U A45G U54C,≤ 0.5
4,C24G A57C,≤ 0.5
5,C24G C29U C34G U35C C46G,≤ 0.5
6,C24G C29U C49U,≤ 0.5
7,C24G C30A U54G,≤ 0.5
8,C24G C30G G39A C55A C62A,≤ 0.5
9,C24G C30U A43C C60G A65C,≤ 0.5
10,C24G C30U C31G C61G,≤ 0.5
11,C24G C31G A40U A70C,≤ 0.5
12,C24G C33U A37U,≤ 0.5
13,C24G C34G G68A A70U,≤ 0.5
14,C24G G52A C66U,≤ 0.5
15,C24G G52C,≤ 0.5
16,C24G U26A G41C G68C,≤ 0.5
17,C24G U28C C62G G67A,≤ 0.5
18,C24G U28C G50C,≤ 0.5
19,C24G U32C A45C C60U C61A,≤ 0.5
20,C24G U47G U53C G63A,≤ 0.5
21,C24G U53C G58A,≤ 0.5
22,C24G U53G A57G,0.545
23,C24G U54G C55G C62U,≤ 0.5
24,C24G U54G C60U G63A,≤ 0.5

row,Variant,yeast fitness
1,C24U A37C C60G G67C,≤ 0.5
2,C24U A37G G44C,≤ 0.5
3,C24U A42U C62G A65U,≤ 0.5
4,C24U A43G C60A,≤ 0.5
5,C24U C30G C46G G52A G58A,0.559
6,C24U C31A C33A C34U,≤ 0.5
7,C24U C31G G52C A57U,≤ 0.5
8,C24U C33U C61A A69U,≤ 0.5
9,C24U C34G G63U A70U,0.542
10,C24U C34U U35G,≤ 0.5
11,C24U C49G G63A A69C,≤ 0.5
12,C24U C55U C60G U64A G67A,≤ 0.5
13,C24U G44A C60U C62A,≤ 0.5
14,C24U G50C C61U A65U,≤ 0.5
15,C24U G58A A65C A69U,≤ 0.5
16,C24U U32G A40U,0.513
17,G25A A36C,0.52
18,G25A C27G A65G,≤ 0.5
19,G25A C31G A45U C61U C62U,≤ 0.5
20,G25A C49A U54G,≤ 0.5
21,G25A U28C,0.891
22,G25A U53C,0.819
23,G25C A37U,0.56
24,G25C C29A G52A C66U,≤ 0.5

row,Variant,yeast fitness
1,G25C C33A A57U A69U,0.548
2,G25C C33U A43U C61G,≤ 0.5
3,G25C C49G G56C A70U,≤ 0.5
4,G25C C62G,0.877
5,G25C U35A G67A A70G,≤ 0.5
6,U26A A43U G63C,≤ 0.5
7,U26A C30A G68C,≤ 0.5
8,U26A C33G C34G U35A G48C U54A,≤ 0.5
9,U26A C49U C66A,≤ 0.5
10,U26A G48A C49G A70U,≤ 0.5
11,U26A G48C A65U A70U,≤ 0.5
12,U26A U54A,0.589
13,U26C A70G,0.915
14,U26C C27A C55U,≤ 0.5
15,U26C C55G G68U,≤ 0.5
16,U26C G38C G41C A65G,≤ 0.5
17,U26C G44C G58A G68C,≤ 0.5
18,U26C G52A U53C G63C,≤ 0.5
19,U26C U32A C34U G38C G51A C60U C62U,≤ 0.5
20,U26C U35C U64G C66G,≤ 0.5
21,U26C U59A G67A,≤ 0.5
22,U26G A37G G51C,0.801
23,U26G C33G U35A C55U A65C,≤ 0.5
24,U26G C55G,0.636

row,Variant,yeast fitness
1,U26G C60G C61U,≤ 0.5
2,U26G C60U A69U,≤ 0.5
3,U26G U54G A69U,≤ 0.5
4,C27A C29G C30G G51A,≤ 0.5
5,C27A C34A,0.68
6,C27A C46A C49A C55A,≤ 0.5
7,C27A C49A G50C G56U,≤ 0.5
8,C27A C49U C61A,≤ 0.5
9,C27G A36C C46U G51C C66U,≤ 0.5
10,C27G A36G G52A,≤ 0.5
11,C27G A45U G56C A57G,≤ 0.5
12,C27G A65C G67A,≤ 0.5
13,C27G C31U C34G A37G,≤ 0.5
14,C27G C31U C34G A37G A69U,≤ 0.5
15,C27G C49A G58A C62G,≤ 0.5
16,C27G C60G,≤ 0.5
17,C27G G41A,1.03
18,C27G G48C C49G,0.503
19,C27G U32C C62U,0.62
20,C27G U47G C49U,≤ 0.5
21,C27U A36C G67A A69C,≤ 0.5
22,C27U A36C U54A C62U,≤ 0.5
23,C27U A40G C49U G51A,≤ 0.5
